Article PMC8419046
Results are given in words; binding and its absence hold for the method and conditions named. Binding seen in cells or lysates may run through a third protein. Some entries that bind do so weakly or less than the wild type.

By UniProt entry, the sequences of proteins in these tests, tags left out.
UniProt P30051: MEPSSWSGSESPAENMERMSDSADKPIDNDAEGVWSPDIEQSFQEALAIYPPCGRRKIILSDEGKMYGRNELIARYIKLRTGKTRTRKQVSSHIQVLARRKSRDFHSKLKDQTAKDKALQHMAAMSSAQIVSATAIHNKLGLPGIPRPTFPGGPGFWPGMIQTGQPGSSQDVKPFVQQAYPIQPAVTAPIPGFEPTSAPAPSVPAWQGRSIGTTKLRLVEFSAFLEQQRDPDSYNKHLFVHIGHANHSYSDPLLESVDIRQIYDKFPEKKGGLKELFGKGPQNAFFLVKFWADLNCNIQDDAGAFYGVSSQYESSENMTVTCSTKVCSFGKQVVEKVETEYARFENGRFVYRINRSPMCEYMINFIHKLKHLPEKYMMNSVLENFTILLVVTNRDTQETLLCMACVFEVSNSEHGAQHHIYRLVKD
UniProt P46938: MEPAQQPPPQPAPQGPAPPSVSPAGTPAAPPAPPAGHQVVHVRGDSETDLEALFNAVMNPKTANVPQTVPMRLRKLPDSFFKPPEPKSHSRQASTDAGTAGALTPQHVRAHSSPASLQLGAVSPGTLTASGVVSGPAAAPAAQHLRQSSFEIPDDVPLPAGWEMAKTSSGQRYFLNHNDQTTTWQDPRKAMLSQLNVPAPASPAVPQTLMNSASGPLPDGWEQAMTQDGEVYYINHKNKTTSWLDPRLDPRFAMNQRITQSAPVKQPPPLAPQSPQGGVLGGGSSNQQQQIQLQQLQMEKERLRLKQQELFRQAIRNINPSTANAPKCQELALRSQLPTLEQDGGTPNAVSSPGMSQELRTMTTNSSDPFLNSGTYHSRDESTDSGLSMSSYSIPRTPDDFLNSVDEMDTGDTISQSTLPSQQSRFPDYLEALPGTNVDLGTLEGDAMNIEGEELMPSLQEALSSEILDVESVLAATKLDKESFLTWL
UniProt Q9EPK5: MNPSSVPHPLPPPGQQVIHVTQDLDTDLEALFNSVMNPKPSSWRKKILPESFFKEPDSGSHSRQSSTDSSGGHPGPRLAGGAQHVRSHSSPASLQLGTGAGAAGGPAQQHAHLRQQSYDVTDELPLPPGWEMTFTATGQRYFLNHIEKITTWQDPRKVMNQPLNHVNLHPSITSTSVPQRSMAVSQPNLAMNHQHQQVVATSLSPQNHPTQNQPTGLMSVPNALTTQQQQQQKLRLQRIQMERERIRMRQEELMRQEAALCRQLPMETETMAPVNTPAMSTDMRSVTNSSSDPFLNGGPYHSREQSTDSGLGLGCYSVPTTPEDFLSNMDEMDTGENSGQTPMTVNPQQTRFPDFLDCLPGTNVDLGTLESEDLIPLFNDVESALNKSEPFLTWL

Target: TEA-domain family member1 (TEAD1) (mouse (endogenous in left ventricle tissue)) (UniProt P30051)
Experiment: co-IP; nuclear protein fraction (1 ug/uL) of LV tissue of nTG and Mst1-TG mice; antibody against YAP1 or TEAD1 or IgG, overnight at 4 °C, protein A/G PLUS-agarose beads; immunoblotting

binding | Substance
binds | yes-associated protein (YAP) (from UniProt P46938 1-488)
binds | transcriptional co-activator with PDZ-binding motif (TAZ, Wwtr1) (from UniProt Q9EPK5 1-395)
